Source: paper PMC5357316
Results are given in words; binding and its absence hold for the method and conditions named. In cells and extracts the contact can be indirect. Some results given as binding are weak or reduced against the parent protein; the word gives no strength. For some assays here: Tags and fused reporters may be left off the sequences shown.

The chains behind the UniProt entries cited, without tags or fusion partners.
UniProt Q60610: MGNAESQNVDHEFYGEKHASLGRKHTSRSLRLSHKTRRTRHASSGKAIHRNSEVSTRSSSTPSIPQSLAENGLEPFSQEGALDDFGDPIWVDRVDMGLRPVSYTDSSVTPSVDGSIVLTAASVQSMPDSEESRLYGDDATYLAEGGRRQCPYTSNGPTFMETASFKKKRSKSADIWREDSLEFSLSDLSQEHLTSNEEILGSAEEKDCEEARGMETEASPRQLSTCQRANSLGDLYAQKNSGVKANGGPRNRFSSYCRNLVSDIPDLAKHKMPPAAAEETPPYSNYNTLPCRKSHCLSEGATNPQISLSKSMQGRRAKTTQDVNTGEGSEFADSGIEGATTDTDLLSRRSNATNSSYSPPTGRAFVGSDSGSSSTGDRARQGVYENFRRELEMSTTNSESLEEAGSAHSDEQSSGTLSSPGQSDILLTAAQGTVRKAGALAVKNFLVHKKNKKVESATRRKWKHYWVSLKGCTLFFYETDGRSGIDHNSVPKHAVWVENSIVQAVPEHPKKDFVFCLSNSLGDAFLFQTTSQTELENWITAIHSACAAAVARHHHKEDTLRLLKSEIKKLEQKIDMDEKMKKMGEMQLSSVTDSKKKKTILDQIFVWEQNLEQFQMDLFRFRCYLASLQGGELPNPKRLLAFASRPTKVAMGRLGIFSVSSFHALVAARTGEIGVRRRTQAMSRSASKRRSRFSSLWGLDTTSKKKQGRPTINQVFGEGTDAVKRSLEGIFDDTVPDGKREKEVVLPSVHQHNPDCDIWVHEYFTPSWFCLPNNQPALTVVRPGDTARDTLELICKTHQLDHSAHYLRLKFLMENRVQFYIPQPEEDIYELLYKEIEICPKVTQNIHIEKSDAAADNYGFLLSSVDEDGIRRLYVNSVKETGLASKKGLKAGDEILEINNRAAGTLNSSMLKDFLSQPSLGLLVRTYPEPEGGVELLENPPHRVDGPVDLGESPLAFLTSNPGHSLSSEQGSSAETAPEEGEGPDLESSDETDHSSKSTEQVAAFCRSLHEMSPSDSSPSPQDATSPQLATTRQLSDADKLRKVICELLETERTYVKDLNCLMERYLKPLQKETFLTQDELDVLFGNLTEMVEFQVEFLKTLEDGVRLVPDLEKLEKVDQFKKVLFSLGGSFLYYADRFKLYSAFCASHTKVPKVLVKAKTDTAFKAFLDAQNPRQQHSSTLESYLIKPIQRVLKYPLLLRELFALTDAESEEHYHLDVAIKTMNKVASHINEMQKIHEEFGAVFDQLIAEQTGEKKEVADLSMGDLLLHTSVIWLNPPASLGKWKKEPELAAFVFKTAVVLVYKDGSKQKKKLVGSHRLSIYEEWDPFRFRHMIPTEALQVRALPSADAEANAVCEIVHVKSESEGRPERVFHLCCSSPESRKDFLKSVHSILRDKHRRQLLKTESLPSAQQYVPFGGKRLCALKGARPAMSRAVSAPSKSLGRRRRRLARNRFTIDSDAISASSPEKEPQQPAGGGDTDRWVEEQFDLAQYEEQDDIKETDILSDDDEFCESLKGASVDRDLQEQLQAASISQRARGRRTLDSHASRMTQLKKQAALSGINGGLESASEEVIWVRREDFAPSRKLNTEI
UniProt Q13009: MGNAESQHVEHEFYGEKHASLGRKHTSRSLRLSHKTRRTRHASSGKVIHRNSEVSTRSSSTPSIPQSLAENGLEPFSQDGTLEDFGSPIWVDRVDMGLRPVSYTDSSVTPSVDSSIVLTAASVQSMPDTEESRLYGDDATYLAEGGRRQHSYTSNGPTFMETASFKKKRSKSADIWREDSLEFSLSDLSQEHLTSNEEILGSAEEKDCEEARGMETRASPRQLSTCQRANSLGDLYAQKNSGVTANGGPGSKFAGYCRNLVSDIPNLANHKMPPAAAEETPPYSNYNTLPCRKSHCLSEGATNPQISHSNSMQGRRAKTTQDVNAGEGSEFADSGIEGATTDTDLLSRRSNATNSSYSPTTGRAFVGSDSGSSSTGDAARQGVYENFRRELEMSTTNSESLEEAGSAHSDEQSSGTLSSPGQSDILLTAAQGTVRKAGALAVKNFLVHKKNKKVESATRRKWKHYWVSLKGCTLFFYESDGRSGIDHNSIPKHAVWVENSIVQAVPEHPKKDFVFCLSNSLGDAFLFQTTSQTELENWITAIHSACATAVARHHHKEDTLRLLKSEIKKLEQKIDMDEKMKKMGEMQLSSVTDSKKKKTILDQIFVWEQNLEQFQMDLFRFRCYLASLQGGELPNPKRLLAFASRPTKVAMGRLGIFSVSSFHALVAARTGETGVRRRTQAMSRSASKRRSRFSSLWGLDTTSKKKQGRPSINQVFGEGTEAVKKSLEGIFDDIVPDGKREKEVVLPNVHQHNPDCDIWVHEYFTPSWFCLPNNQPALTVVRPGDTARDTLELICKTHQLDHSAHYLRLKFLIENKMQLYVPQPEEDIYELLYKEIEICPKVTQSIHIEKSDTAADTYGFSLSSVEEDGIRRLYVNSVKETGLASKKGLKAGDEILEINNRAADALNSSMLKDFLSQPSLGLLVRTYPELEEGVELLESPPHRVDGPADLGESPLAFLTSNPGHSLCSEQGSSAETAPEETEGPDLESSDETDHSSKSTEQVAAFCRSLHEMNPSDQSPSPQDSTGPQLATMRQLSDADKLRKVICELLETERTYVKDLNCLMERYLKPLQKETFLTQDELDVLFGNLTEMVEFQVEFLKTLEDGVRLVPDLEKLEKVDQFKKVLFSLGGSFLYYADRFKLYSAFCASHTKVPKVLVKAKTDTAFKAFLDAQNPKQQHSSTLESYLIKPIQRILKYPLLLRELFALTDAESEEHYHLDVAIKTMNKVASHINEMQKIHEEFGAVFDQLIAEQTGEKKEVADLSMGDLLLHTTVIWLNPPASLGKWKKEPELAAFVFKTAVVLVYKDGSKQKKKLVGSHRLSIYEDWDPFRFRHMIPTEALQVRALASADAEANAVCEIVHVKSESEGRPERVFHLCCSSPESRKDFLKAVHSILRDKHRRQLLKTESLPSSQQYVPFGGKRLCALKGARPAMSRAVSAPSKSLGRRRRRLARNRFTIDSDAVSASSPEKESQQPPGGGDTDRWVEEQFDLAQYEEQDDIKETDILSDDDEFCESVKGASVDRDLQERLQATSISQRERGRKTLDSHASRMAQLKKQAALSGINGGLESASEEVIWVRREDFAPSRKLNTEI

How the values were obtained:
[1] = target: T1, p140Cap (mouse, MMTV-p140Cap transgene, Myc epitope at the carboxyterminal region) (mouse) (UniProt Q9QWI6); assay: co-IP; cell extracts in RIPA buffer; 1 mg of proteins immunoprecipitated with antibodies to p140Cap (legend: or to Tiam1) for 2 h at 4 °C with protein G-Sepharose beads; blotted for p140Cap and Tiam1; NeuT and p140 primary cancer cells, p140 over-expressing or mock SKBR3 cells
T1 sequence: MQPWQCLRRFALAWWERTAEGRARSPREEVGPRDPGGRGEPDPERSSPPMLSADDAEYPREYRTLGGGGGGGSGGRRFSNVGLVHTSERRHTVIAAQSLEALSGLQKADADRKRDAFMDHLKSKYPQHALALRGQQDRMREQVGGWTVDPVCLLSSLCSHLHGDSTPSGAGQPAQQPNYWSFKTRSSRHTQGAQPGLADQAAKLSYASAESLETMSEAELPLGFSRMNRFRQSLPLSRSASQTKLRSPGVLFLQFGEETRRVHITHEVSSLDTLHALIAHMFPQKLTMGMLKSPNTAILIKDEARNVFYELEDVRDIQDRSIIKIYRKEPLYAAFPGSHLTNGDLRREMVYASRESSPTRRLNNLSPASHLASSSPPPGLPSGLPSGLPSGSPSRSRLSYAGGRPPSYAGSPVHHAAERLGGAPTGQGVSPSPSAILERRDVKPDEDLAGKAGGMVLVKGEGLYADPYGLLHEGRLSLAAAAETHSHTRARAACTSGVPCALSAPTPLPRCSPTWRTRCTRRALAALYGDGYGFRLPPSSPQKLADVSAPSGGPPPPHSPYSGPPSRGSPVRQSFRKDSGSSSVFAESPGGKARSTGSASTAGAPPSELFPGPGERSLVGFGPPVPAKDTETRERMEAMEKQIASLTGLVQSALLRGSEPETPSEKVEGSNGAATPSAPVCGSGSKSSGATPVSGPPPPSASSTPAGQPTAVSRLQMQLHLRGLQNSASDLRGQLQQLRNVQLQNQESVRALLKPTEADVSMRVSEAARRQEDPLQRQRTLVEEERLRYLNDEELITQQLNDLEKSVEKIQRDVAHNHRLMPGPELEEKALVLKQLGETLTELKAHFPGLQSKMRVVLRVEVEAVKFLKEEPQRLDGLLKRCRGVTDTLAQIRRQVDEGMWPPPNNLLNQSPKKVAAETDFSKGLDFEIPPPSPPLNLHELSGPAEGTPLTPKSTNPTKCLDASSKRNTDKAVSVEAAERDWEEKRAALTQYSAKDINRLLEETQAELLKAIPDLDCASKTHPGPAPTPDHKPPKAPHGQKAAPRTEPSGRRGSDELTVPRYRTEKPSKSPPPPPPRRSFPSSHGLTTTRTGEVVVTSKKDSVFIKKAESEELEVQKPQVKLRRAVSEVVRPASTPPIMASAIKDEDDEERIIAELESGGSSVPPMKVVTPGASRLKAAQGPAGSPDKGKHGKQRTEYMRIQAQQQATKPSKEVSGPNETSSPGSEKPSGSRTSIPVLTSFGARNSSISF

[2] = target: T2, p140Cap over-expressed in SKBR3 cells (pBabe-puro retrovirus) (UniProt Q9QWI6); assay: as above
T2 sequence: T1 sequence

| binding [1] | binding [2] | Substance |
| --- | --- | --- |
| binds | – | Tiam1 (endogenous, mouse primary cancer cells) (from UniProt Q60610 1-1591) |
| – | binds | Tiam1 (endogenous, human breast cancer cells) (from UniProt Q13009 1-1591) |
